Source: article PMC8042240

Protein sequences, listed by entry. Tags and fused reporters are not part of them. Residues count along the entry.
UniProt P31041, 20-218: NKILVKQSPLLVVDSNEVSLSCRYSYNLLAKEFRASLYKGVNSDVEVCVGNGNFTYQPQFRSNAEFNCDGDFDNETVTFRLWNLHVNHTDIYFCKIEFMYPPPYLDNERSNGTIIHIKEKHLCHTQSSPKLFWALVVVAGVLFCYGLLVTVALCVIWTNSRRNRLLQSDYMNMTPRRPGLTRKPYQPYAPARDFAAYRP

Target: CD28 (Mus musculus (BALB/c spleen CD8+ T cells)) (UniProt P31041)
Experiment: flow cytometry cell bridging
Conditions: control NP without CD28 aptamer could not bridge CD8+ T cells and tumor cells; 2'-F on pyrimidines; Opti-MEM, 37 C, 2 h, 100 nM RNA NP, 10^5 CD8+ T cells and tumor cells 1:1; NPs annealed in 10 mM Tris, 50 mM NaCl, 1 mM EDTA, pH 7.5; protein on the cell surface; letters put together from the description

Sequence: GGGACAGCACACAGAGCAGCAGCUUGAGACUCAGCGUACUUCUGGCAAGGUACGGUACUUUUGCCAUGUGUAUGUGGGCGCAGACGGCGAUACCUAGUAGUCACCUAGUGCUCUAUCGUAGAAGUGUAGCAUGACGCC / GGGACCGAAAAAGACCUGACUUCUAUACUAAGUCUACGUUCCCGGCGUCAUGCUACACUUCUACGAUAGAGCACUAGGUGACUACUAGGUAUCGCCGUCUGCGCCCACAUACUUUGUUGAUCC / GGAUCAAUCAUGGCAAAAGUACCGUACCUUGCCAGAAGUACGCUGAGUCUCAAGCUGCUGCUCUGUGUGCUGUCCC [3WJ/PSMAapt RNA NP (no CD28 aptamer)]
- binding result: no binding

Construct, isoform or probe ends are uncertain for at least one entry. Results from cells or extracts need not show a direct contact. A negative result means that nothing was seen under these conditions. At least one verdict rests on a figure or table, not on a statement of the authors.
